Experimental data reported in the supplement of paper PMC10849652.
Some of the results follow.

Amino acid sequences for entries named in this document (tags omitted). A change or cut given only in a name is not applied to a line headed by its entry.
UniProt Q9NQ92: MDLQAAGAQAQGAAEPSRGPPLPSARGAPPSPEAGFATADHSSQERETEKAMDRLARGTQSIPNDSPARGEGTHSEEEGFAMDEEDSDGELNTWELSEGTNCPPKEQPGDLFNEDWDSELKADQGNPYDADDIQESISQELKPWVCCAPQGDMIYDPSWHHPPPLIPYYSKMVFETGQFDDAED
UniProt Q86VX2, whole entry, looked up: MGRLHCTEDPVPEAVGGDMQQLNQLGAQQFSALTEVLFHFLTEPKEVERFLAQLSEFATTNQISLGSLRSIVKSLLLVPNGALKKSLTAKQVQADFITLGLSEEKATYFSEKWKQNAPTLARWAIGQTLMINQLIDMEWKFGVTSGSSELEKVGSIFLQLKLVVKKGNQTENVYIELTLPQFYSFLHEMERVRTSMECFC
UniProt P16220: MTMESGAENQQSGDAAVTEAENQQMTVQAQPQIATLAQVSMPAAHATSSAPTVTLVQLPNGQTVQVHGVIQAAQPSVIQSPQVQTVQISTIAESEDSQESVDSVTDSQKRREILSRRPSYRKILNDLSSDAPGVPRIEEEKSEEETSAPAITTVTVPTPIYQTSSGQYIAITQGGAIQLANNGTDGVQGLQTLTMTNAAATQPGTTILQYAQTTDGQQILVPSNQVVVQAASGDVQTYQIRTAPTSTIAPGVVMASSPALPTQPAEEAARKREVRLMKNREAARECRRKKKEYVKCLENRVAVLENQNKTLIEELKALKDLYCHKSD
UniProt P55060: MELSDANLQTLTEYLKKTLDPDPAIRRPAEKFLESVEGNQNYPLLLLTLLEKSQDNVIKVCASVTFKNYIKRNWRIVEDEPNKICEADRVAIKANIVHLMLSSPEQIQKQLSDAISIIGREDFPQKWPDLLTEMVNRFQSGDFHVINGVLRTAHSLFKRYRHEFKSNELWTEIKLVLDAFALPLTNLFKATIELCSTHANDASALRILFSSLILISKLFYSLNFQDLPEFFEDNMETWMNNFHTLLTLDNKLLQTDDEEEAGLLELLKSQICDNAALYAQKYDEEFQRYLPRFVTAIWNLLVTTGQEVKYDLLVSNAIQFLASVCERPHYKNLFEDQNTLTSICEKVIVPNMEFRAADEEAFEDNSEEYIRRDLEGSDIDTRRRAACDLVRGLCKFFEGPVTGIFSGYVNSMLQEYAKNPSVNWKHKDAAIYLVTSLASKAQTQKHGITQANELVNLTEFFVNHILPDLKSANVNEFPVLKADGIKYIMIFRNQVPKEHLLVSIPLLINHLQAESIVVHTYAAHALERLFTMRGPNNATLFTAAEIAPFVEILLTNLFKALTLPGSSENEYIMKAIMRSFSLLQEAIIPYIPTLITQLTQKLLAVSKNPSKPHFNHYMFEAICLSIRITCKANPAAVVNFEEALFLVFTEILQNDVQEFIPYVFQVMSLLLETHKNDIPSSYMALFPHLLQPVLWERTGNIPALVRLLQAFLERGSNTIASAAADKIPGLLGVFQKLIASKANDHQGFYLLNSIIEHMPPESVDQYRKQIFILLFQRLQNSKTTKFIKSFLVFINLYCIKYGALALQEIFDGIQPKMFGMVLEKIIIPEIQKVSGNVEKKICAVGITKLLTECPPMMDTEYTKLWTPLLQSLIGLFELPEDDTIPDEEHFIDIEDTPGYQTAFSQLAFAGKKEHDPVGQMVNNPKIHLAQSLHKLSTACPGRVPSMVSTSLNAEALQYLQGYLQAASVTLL
UniProt Q9Y6M4: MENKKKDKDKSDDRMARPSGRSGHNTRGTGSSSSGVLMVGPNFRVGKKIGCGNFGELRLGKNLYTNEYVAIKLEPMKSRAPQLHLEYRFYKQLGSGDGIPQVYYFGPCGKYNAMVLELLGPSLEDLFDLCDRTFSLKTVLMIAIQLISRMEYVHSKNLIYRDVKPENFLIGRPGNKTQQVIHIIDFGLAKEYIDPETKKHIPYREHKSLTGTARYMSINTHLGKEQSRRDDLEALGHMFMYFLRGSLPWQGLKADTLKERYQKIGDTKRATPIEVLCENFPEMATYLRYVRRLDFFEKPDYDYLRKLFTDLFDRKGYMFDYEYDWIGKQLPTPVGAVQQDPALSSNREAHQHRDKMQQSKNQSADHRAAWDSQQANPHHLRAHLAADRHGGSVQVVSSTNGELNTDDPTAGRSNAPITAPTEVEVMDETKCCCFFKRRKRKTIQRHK
UniProt Q92793, whole entry, looked up: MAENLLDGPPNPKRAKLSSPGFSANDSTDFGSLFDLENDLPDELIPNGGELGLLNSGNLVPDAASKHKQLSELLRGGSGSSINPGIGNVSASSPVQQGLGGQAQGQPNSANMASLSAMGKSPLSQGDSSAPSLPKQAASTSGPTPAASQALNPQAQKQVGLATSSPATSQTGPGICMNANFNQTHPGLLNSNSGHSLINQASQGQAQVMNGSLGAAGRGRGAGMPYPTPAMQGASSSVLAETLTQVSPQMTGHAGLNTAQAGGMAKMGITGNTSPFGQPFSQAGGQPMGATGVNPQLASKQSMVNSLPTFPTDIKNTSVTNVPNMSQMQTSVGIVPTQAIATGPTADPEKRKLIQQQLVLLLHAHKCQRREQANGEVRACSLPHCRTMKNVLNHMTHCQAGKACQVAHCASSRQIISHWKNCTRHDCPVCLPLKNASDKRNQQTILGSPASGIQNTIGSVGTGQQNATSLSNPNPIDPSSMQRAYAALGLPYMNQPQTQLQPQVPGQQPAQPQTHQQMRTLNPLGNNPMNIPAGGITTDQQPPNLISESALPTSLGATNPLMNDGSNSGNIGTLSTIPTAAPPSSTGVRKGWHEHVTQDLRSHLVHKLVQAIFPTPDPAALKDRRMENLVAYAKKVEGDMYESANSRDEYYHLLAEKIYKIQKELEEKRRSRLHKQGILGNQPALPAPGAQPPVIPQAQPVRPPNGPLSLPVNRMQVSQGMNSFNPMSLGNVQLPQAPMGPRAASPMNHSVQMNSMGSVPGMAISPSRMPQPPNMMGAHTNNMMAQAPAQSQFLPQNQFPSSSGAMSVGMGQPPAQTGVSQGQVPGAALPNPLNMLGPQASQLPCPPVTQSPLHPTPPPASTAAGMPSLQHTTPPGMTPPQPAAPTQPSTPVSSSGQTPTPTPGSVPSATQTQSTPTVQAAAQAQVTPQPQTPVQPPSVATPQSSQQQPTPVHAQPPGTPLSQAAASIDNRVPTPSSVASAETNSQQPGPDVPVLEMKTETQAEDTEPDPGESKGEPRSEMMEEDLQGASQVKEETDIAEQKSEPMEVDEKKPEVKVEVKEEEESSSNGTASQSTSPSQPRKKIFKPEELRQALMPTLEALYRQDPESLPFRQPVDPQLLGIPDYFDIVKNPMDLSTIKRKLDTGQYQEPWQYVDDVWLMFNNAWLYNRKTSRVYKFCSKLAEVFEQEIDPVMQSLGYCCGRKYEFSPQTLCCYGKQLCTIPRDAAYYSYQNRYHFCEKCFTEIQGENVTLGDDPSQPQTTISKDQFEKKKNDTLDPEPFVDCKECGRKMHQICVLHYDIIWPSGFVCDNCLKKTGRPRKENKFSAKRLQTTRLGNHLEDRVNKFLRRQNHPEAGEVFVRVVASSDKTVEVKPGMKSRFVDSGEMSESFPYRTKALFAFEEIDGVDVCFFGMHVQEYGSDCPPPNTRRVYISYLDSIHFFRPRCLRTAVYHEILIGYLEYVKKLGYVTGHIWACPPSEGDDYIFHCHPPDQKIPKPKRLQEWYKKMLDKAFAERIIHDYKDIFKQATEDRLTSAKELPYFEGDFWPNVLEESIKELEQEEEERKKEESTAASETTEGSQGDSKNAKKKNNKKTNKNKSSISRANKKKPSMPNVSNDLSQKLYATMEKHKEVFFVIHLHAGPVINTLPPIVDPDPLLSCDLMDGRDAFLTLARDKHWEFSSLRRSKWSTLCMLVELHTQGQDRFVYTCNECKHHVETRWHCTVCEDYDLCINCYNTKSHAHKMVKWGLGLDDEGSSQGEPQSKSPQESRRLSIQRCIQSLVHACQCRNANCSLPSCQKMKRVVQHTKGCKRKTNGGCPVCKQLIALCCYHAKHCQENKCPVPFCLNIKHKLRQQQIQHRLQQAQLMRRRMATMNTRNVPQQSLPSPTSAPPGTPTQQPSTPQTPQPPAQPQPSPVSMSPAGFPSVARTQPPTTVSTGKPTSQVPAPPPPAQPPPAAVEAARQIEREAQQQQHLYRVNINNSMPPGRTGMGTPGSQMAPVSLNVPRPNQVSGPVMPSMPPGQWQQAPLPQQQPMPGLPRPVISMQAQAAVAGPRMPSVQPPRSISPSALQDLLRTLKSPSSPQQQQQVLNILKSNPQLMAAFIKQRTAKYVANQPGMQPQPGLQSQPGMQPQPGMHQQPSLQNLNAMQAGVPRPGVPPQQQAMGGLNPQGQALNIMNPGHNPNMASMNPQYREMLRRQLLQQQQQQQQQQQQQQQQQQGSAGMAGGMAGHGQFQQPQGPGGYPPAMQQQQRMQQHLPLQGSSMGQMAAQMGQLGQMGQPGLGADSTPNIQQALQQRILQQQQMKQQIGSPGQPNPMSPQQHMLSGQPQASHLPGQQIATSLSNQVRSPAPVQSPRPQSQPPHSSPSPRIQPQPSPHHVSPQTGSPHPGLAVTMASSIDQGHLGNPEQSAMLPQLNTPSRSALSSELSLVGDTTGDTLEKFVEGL
UniProt Q5TZA2: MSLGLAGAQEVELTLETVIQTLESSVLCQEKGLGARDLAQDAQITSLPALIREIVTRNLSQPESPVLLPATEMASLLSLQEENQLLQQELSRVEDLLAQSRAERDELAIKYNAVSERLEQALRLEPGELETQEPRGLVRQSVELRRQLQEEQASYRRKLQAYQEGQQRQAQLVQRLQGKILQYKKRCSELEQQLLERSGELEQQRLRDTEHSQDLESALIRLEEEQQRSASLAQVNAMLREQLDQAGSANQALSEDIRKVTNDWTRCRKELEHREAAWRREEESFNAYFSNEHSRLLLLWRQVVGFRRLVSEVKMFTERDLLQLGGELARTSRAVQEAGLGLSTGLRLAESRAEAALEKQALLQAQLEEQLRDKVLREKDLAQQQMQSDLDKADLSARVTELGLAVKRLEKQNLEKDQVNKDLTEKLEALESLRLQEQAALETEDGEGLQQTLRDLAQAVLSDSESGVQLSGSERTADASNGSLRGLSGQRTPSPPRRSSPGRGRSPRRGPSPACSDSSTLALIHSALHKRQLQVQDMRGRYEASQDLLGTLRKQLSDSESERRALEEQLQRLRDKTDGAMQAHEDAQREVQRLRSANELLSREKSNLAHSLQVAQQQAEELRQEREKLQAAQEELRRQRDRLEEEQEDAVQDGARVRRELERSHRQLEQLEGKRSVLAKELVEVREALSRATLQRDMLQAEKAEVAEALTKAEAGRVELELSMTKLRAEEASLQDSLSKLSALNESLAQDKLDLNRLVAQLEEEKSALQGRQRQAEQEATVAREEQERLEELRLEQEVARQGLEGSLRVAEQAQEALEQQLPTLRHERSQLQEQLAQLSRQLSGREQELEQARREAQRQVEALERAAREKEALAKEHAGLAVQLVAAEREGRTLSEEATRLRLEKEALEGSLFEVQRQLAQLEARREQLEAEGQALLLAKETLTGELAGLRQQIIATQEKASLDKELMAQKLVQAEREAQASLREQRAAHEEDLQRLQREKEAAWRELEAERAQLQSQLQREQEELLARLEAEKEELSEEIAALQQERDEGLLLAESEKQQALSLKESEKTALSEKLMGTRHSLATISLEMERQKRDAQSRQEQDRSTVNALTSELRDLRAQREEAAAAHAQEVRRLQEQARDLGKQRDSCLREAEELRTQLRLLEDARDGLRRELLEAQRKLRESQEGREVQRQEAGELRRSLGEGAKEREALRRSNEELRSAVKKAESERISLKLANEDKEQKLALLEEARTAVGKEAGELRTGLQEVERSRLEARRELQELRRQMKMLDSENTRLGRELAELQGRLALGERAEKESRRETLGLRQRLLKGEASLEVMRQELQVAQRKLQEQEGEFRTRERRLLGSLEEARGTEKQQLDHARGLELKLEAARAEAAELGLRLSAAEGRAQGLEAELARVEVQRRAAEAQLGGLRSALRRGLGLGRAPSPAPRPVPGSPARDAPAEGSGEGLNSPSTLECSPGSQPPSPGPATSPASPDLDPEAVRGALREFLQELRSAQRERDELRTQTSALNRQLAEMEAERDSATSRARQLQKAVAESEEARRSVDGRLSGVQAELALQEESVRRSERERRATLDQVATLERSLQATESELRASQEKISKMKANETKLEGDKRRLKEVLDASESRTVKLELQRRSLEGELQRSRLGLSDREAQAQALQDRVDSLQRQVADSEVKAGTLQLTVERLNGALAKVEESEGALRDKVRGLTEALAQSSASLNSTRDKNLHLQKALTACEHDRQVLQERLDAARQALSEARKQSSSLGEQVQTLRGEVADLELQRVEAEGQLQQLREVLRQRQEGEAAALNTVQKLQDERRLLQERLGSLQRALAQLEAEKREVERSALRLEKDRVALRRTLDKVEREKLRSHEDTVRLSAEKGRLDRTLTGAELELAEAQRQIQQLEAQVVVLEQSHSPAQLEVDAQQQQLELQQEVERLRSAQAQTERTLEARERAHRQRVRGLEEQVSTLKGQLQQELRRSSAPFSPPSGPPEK

What was measured:
Assay in all cases: log2 fold change, soluble protein after heating vs DMSO (PISA); higher = thermal stabilisation; K562 cells, 10 uM, 30 min; active = over 0.2 and 3.5 SD of the protein, either way, in both replicates (recomputed)
[1] = compound: NC(=O)Nc1cc(-c2cccc(F)c2)sc1C(=O)N[C@H]1CCCNC1
Outline: (§1)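 K562 cells at 2×10^6 cells/mL were treated for 30 min with 10 μM compound, and aliquots were heated for 3 min over 48°C-58°C before pooling. Extraction used PBS with 0.5% NP-40 at 4°C, and soluble protein was the supernatant after 21,000xg for 90 min, measured by TMTpro 16plex LC-MS/MS with channel sums equalised. Thermal stability values, relative to control samples and from duplicates, are log2 fold changes.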

[2] = compound: NC(=O)c1cnc(N[C@@H]2CCCC[C@@H]2N)nc1Nc1cccc(-n2nccn2)c1
Outline: as §1

[3] = compound: NC1(c2ccc(-c3nc4ccn5c(=O)[nH]nc5c4cc3-c3ccccc3)cc2)CCC1
Outline: as §1

[4] = compound: NCC(=O)Nc1ccc(-n2nc(C(F)(F)F)cc2-c2ccc3c(ccc4ccccc43)c2)cc1
Outline: as §1

entinostat = compound: Nc1ccccc1NC(=O)c1ccc(CNC(=O)OCc2cccnc2)cc1 [entinostat]
Outline: as §1

vorinostat = compound: O=C(CCCCCCC(=O)Nc1ccccc1)NO [vorinostat]
Outline: as §1

citarinostat = compound: O=C(CCCCCCNC(=O)c1cnc(N(c2ccccc2)c2ccccc2Cl)nc1)NO [citarinostat]
Outline: as §1

silmitasertib = compound: O=C(O)c1ccc2c(c1)nc(Nc1cccc(Cl)c1)c1ccncc12 [silmitasertib]
Outline: as §1

[5] = compound: O=C1NC(=O)C(c2cnc3ccccn23)=C1c1cn2c3c(cc(F)cc13)CN(C(=O)N1CCCCC1)CC2
Outline: as §1

[6] = compound: c1cc(OCCN2CCCCC2)cc(-c2n[nH]c3ccc(-c4nnc[nH]4)cc23)c1
Outline: as §1

Measured: log2 fold change

COPRS (UniProt Q9NQ92)
inactive: [1] -0.03 | [2] 0.019 | [3] -0.014 | [4] -0.034 | entinostat -0.037 | vorinostat -0.027 | citarinostat -0.033 | silmitasertib -0.003 | [5] -0.101 | [6] 0.096

COQ8A (UniProt Q8NI60)
inactive: [1] 0.019 | [2] 0.016 | [3] -0.039 | [4] 0.142 | entinostat 0.023 | vorinostat 0.057 | citarinostat -0.001 | silmitasertib -0.03 | [5] -0.018 | [6] -0.032

COPS4 (UniProt Q9BT78)
inactive: [1] 0.015 | [2] 0.009 | [3] -0.032 | [4] 0.036 | entinostat 0.01 | vorinostat 0.027 | citarinostat 0.031 | silmitasertib -0.035 | [5] -0.01 | [6] 0.027

CRELD2 isoform 5 (UniProt Q6UXH1)
inactive: [1] 0.003 | [2] 0 | [3] 0.013 | [4] -0.021 | entinostat -0.01 | vorinostat -0.04 | citarinostat -0.016 | silmitasertib 0.039 | [5] 0.103 | [6] -0.018

COMMD7 (UniProt Q86VX2)
inactive: [1] -0.04 | [2] -0.021 | [3] -0.088 | [4] -0.056 | entinostat -0.034 | vorinostat 0.043 | citarinostat 0.018 | silmitasertib 0.048 | [5] 0.023 | [6] -0.1

COX15 (UniProt Q7KZN9)
inactive: [1] 0.003 | [2] -0.009 | [3] -0.043 | [4] -0.013 | entinostat 0.004 | vorinostat -0.017 | citarinostat 0.048 | silmitasertib 0.022 | [5] 0.028 | [6] -0.064

CSNK2A2 (UniProt P19784)
inactive: [1] -0.069 | [2] 0.008 | [3] -0.052 | [4] 0.069 | entinostat -0.015 | vorinostat 0.086 | citarinostat 0.011 | [5] -0.076 | [6] 0.022
active: silmitasertib 0.873

CPSF1 (UniProt Q10570)
inactive: [1] 0.024 | [2] 0.069 | [3] 0.059 | [4] 0.006 | entinostat -0.023 | vorinostat 0.012 | citarinostat -0.025 | silmitasertib 0.052 | [5] 0.099 | [6] -0.139

COQ3 (UniProt Q9NZJ6)
inactive: [1] -0.044 | [2] -0.071 | [3] -0.063 | [4] -0.046 | entinostat -0.06 | vorinostat 0.064 | citarinostat 0.06 | silmitasertib 0.031 | [5] -0.031 | [6] -0.024

COMMD2 (UniProt Q86X83)
inactive: [1] -0.007 | [2] -0.034 | [3] -0.098 | [4] 0.039 | entinostat -0.062 | vorinostat 0.049 | citarinostat 0.011 | silmitasertib 0.053 | [5] 0.011 | [6] -0.08

Reprinted from the entries so far (2 entries):
CSNK2A2 (UniProt P19784)
inactive: [1] -0.069 | [2] 0.008 | [3] -0.052 | [4] 0.069 | entinostat -0.015 | vorinostat 0.086 | citarinostat 0.011 | [5] -0.076 | [6] 0.022
active: silmitasertib 0.873

CPSF1 (UniProt Q10570)
inactive: [1] 0.024 | [2] 0.069 | [3] 0.059 | [4] 0.006 | entinostat -0.023 | vorinostat 0.012 | citarinostat -0.025 | silmitasertib 0.052 | [5] 0.099 | [6] -0.139

(cont.)

COPA isoform 2 (UniProt P53621)
inactive: [1] -0.048 | [2] -0.037 | [3] -0.047 | [4] -0.021 | entinostat 0.006 | vorinostat -0.014 | citarinostat 0.044 | silmitasertib 0.011 | [5] -0.017 | [6] -0.031

COX7C (UniProt P15954)
inactive: [1] 0.009 | [2] 0.048 | [3] -0.013 | [4] 0.046 | entinostat 0.014 | vorinostat -0.017 | citarinostat 0.079 | silmitasertib -0.003 | [5] -0.089 | [6] -0.059

CRBN (UniProt Q96SW2)
inactive: [1] -0.021 | [2] 0.01 | [3] -0.048 | [4] 0.023 | entinostat -0.002 | vorinostat -0.043 | citarinostat 0.02 | silmitasertib 0.004 | [5] -0.076 | [6] -0.006

COQ5 (UniProt Q5HYK3)
inactive: [1] -0.006 | [2] -0.086 | [3] -0.087 | [4] 0.015 | entinostat -0.035 | vorinostat 0.008 | citarinostat 0.043 | silmitasertib 0.004 | [5] -0.038 | [6] 0.01

CRYZ (UniProt Q08257)
inactive: [1] -0.031 | [2] -0.062 | [3] -0.005 | [4] -0.013 | entinostat 0 | vorinostat -0.023 | citarinostat 0.042 | silmitasertib -0.017 | [5] -0.061 | [6] -0.028

COPS2 (UniProt P61201)
inactive: [1] 0.044 | [2] 0.023 | [3] -0.052 | [4] -0.001 | entinostat -0.011 | vorinostat 0.009 | citarinostat 0.069 | silmitasertib -0.035 | [5] -0.011 | [6] -0.02

CPOX (UniProt P36551)
inactive: [1] 0.013 | [2] -0.035 | [3] 0.006 | [4] 0.015 | entinostat -0.041 | vorinostat -0.009 | citarinostat -0.004 | silmitasertib 0.051 | [5] 0.001 | [6] 0.041

CPSF7 isoform 3 (UniProt Q8N684)
inactive: [1] -0.063 | [2] 0.025 | [3] 0.027 | [4] 0.013 | entinostat -0.023 | vorinostat 0.01 | citarinostat 0.001 | silmitasertib -0.069 | [5] 0.054 | [6] -0.035

CREB1 (UniProt P16220)
inactive: [1] 0.002 | [2] -0.038 | [3] -0.024 | [4] -0.068 | entinostat -0.073 | vorinostat -0.154 | citarinostat -0.036 | silmitasertib -0.024 | [5] -0.018 | [6] -0.106

CRK (UniProt P46108)
inactive: [2] 0.004 | [3] -0.063 | [4] -0.011 | entinostat 0.026 | vorinostat -0.002 | citarinostat 0.061 | silmitasertib 0.062 | [5] -0.016 | [6] -0.016
active: [1] -0.81

COX18 (UniProt Q8N8Q8)
inactive: [1] -0.051 | [2] -0.059 | [3] -0.034 | [4] -0.019 | entinostat -0.027 | vorinostat -0.043 | citarinostat 0.046 | silmitasertib -0.009 | [5] -0.069 | [6] -0.047

COX4I1 (UniProt P13073)
inactive: [1] 0.005 | [2] 0.012 | [3] 0.026 | [4] 0.026 | entinostat 0 | vorinostat -0.037 | citarinostat 0.005 | silmitasertib 0.003 | [5] -0.014 | [6] -0.046

CSE1L (UniProt P55060)
inactive: [1] -0.037 | [2] -0.067 | [3] -0.162 | [4] -0.071 | entinostat 0.05 | vorinostat 0.015 | citarinostat 0.058 | silmitasertib 0.035 | [5] -0.059 | [6] -0.018

CPT1A (UniProt P50416)
inactive: [1] -0.068 | [2] -0.012 | [3] 0.117 | [4] -0.001 | entinostat -0.005 | vorinostat -0.017 | citarinostat 0.053 | silmitasertib 0.037 | [5] -0.014 | [6] 0.071

CSNK1G3 (UniProt Q9Y6M4)
inactive: [1] 0.004 | [2] -0.104 | [3] -0.087 | [4] -0.077 | entinostat 0.022 | vorinostat 0.02 | citarinostat 0.047 | silmitasertib 0.087 | [5] 0.121 | [6] -0.049

CRACR2A isoform 2 (UniProt Q9BSW2)
inactive: [1] -0.012 | [2] 0.076 | [3] -0.099 | [4] -0.05 | entinostat -0.15 | vorinostat -0.03 | citarinostat -0.016 | silmitasertib 0.103 | [5] 0.054 | [6] 0.134

CREBBP (UniProt Q92793)
inactive: [1] 0.011 | [2] 0.009 | [3] -0.072 | [4] -0.016 | entinostat 0.003 | vorinostat 0.007 | citarinostat 0.078 | silmitasertib -0.046 | [5] -0.026 | [6] -0.015

CRYM-AS1 (UniProt A6NIL9)
inactive: [1] 0.038 | [2] -0.014 | [3] 0.27 | [4] 0.042 | entinostat -0.101 | vorinostat 0.014 | citarinostat 0.021 | silmitasertib 0.031 | [5] -0.076 | [6] -0.135

CROCC (UniProt Q5TZA2)
inactive: [1] -0.066 | [2] -0.009 | [3] -0.083 | [4] -0.061 | entinostat 0.033 | vorinostat -0.027 | citarinostat -0.004 | silmitasertib -0.02 | [5] -0.116 | [6] 0.047

COPS8 (UniProt Q99627)
inactive: [1] 0.02 | [2] 0.038 | [3] -0.042 | [4] 0.043 | entinostat 0.034 | vorinostat 0.041 | citarinostat 0.056 | silmitasertib 0.044 | [5] -0.077 | [6] 0.018
